Reference: publication PMC6873818
The exact form of at least one protein or probe is not confirmed.

System: Replication factor C (RFC) complex (Saccharomyces cerevisiae)
Assay: EMSA
Conditions: 2 mM Mg2+, 25 mM Tris-HCl pH 7.5, 50 mM NaCl, 2 mM MgCl2, 2 mM DTT, 0.1 mg/mL BSA, 1 nM oligo, 0-256 nM RFC, 15 min, room temperature, 10% native gel, recombinant protein, label: 32P (T4 PNK, 5' end)

| Sequence | Kd (folded or branched DNA) | Kd |
| --- | --- | --- |
| CTCGAGGTCGTCATCGACCTCGAGATCA [dsDNA] | 1.9 nM | – |
| CUCGAGGUCGUCAUCGACCUCGAGAUCA [dsRNA] | – | 25 nM |
